Laboratory results taken from patent US20250236644A1, “De Novo Designed Stimulus-responsive Two-state Hinge Proteins” (University of Washington, priority 2024, published 2025).

System: TAMRA-cs221B
Assay: FP titration and kinetics, hinge vs TAMRA-cs221B
Assay type: binding
Conditions: absence of peptide; estimated from on rates assuming locked Y variant is 100% in state Y
Method: All FP measurements were performed at 25° C. in 96-well plates (Corning 3686) using a Synergy Neo2™ plate reader and a 530/590 nm filter cube. The buffer for all FP measurements was 20 mM Tris-HCl, 100 mM NaCl, 0.05% v/v TWEEN20 at pH 8. Titrations were carried out in 96-well format, with 4 replicates per plate and 24 data points per titration (23 steps of two-fold serial dilution of hinges in the presence of TAMRA-labeled peptide at a constant concentration between 0.1 nM and 1 nM) with a final sample volume of 80 μl per well. Titration plates were incubated overnight at room temperature before measuring to ensure complete equilibration. The polarization signal S (as calculated by the Neo2™ software) was fitted to the equation
where fAB is the fraction of peptide that is bound, Atot is the absolute hinge concentration, Btot is the absolute peptide concentration, S0 is the baseline polarization of free peptide, and S1 is the change in polarization upon complex formation.
Fitting was performed using the scipy.optimize.curve_fit python function (53). Uncertainties for KD values are standard deviation errors calculated from the covariance matrix of the fits. In cases where the fitted KD was lower than the concentration of the labeled peptide Btot, we report the KD as KD<Btot. […]

B1: cs221: designed hinge protein, SEQ ID NO:10 (protein)
chain: MSGEMKEEIRRLAEELRERTKDEEVRELAREAARLAEESDDEEVKEVVKKALEAALKSKDEEVIRLLLLAAVLAAAAARSGSPEEKLEIAKKALELAMKSKDEEVIRLALLAAVLAARSDDEEVLKKVKEALEKAMESKDVEEIRERLREAVEVARAGSGSHHWGSTHHHHHH
Question: With B1 as the molecule, how does the “fraction of hinge in state X at equilibrium” value read?
Answer: 99.5%

Question: And the “fraction of hinge in state Y at equilibrium” value?
Answer: 0.5%
